These are yes or no findings as the source states them, for the method shown. Binding seen in cells or lysates may run through a third protein. Some results given as binding are weak or reduced against the parent protein; the word gives no strength.

The chains behind the UniProt entries cited, without tags or fusion partners.
UniProt Q92621: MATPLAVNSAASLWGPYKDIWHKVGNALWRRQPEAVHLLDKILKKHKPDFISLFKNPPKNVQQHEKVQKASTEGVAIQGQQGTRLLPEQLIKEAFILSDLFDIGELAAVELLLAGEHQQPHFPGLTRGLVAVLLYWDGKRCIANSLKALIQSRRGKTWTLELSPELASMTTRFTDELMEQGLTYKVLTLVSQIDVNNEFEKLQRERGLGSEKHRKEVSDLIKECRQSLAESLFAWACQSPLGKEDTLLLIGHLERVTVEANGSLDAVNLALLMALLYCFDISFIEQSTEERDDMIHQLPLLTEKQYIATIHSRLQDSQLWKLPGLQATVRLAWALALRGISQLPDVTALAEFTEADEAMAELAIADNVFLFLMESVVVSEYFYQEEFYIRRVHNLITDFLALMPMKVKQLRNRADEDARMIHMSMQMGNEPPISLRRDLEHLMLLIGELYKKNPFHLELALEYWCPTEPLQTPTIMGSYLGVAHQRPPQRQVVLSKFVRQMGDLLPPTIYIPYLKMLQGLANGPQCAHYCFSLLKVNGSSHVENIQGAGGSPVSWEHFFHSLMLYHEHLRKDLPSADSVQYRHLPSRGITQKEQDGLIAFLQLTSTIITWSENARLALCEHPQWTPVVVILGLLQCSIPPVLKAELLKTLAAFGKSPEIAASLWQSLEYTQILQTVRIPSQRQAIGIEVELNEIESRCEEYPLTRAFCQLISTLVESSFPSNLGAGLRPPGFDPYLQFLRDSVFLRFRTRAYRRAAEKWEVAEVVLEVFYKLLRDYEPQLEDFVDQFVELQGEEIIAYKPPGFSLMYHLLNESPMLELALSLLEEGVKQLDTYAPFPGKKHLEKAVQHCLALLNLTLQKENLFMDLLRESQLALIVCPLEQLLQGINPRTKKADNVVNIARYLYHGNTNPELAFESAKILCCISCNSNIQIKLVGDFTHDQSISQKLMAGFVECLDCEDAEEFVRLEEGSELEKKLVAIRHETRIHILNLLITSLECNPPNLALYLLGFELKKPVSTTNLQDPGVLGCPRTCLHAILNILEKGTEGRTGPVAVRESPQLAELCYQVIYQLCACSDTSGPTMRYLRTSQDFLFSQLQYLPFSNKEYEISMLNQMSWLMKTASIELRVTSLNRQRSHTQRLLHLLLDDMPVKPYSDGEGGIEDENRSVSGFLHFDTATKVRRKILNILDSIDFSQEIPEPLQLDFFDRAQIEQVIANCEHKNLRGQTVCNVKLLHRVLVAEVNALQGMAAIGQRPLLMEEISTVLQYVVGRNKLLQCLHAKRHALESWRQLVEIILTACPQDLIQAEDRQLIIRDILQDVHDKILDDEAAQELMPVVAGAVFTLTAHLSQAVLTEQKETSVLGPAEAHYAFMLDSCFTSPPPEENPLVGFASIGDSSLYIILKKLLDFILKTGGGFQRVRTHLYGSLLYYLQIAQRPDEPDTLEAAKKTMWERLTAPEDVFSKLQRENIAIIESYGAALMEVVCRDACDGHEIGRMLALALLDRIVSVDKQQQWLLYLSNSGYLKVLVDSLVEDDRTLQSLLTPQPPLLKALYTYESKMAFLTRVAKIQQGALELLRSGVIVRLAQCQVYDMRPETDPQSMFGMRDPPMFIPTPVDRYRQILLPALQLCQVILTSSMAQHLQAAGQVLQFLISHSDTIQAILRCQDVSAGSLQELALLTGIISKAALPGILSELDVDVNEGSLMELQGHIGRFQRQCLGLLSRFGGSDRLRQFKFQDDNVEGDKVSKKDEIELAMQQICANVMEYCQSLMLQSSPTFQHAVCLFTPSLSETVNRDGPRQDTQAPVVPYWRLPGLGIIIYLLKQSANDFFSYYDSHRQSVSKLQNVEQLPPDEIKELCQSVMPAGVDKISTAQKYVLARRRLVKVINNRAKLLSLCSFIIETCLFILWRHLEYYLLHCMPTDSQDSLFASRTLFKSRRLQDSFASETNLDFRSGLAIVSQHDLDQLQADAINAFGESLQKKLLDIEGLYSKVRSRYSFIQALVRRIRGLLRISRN

This assay deals with T1, human Nup93, endogenous (human (endogenous in HeLa)) (UniProt Q8N1F7).
T1 sequence: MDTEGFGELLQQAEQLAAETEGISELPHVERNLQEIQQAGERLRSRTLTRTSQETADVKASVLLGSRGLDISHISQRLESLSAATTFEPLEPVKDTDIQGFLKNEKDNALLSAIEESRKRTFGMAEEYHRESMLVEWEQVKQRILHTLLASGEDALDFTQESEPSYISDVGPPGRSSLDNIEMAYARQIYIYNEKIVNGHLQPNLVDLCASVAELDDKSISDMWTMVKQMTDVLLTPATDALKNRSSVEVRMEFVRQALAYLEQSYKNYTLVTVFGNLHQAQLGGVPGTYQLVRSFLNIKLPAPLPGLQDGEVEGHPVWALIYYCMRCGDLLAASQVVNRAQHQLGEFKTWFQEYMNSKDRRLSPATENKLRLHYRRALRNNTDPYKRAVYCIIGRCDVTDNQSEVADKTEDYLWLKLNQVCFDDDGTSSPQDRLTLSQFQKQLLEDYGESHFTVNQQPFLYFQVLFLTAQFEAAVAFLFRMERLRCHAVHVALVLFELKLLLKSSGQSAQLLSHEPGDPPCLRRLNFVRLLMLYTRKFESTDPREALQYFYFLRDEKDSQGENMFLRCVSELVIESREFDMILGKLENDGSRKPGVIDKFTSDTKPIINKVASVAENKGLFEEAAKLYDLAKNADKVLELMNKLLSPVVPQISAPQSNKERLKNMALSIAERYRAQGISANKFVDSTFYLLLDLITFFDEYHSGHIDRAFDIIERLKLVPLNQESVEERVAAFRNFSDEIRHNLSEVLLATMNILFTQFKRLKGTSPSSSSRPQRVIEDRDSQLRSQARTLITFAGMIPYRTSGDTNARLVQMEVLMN
Nature of the assay: pull-down; proteins co-purifying with the Nup that was captured by the immobilised nanobody from HeLa lysate or Xenopus egg extract; SDS-PAGE/Coomassie, identities confirmed by mass spectrometry.

“human Nup205, endogenous (from UniProt Q92621 1-2012)”: the binding result is recorded as “binds”.

These data come from article PMC11148069.
